Consider 13 substances from paper PMC11440508 (Journal of Medicinal Chemistry, 2024).

Strings that start with PEPTIDE1 are HELM notation: dots part the residues, brackets hold end groups and non-standard residues. Starred links: 1 amine or outer side, 2 acyl side, 3 side chain; linkers in the order of their positions; H or OH if unused. Non-standard residues stand in square brackets, D forms with d. *: point of attachment. X1 = CN(C)c1ccc2c(-c3ccc(C(=O)*)cc3C(=O)[O-])c3ccc(=[N+](C)C)cc-3oc2c1; X4 = NCCCCNC(=O)N=C(N)NCCC[C@H](N[*:1])C(=O)[*:2]; dTyr(β,β-Me2) = CC(C)(c1ccc(O)cc1)[C@@H](N)C(=O)O; Gly(piperidin-4-yl) = N[C@H](C(=O)O)C1CCNCC1; X2 = O=C(CCc1cn(CCCN[*:1])nn1)[*:2]; Pent4ynoyl = C#CCCC(=O)*; Propionyl = CCC(=O)* Bounds are passed on as bounds.

The nature of series [1]: general procedure: Fmoc solid-phase peptide synthesis; H-Leu-2-ClTrt resin; HBTU/HOBt/DIPEA. The note with it: for final HPLC purity: 220 nm; for step yield: late stage modification step.
Series [2] can be described thus: general procedure: Fmoc solid-phase peptide synthesis; H-Leu-2-ClTrt; HBTU/HOBt/DIPEA. The note with it: whole synthesis, 0.79 mmol/g, TFA salt.
Where [3] appears, read: conjugation step, TFA salt (hydrotrifluoroacetate).
Setting [4] is: TFA salt (hydrotrifluoroacetate).
Where [5] appears, read: whole synthesis, TFA salt (hydrotrifluoroacetate).

Take “PEPTIDE1{[Cy3B-trz-propanoyl].[pipGly].P.[Arg(carbPr)].R.P.[bbMe2Tyr].I.L}$$$$V2.0”: in series [1] (setting [3]), the “final HPLC purity” value is recorded as greater than 99% and the conjugation yield is 39%. For the same substance, in series [1] (conjugation step, overall from precursor 10a, TFA salt (hydrotrifluoroacetate)), the conjugation yield was determined as 15%. Besides, in series [1] (setting [4]), the step yield is 38%.

“N^α-(Pent-4-ynoyl)-2-(piperidin-4-yl)-Gly-Pro-N^ω-[(4-aminobutyl)aminocarbonyl]Arg-Arg-Pro-β,β-dimethyl-L-Tyr-Ile-Leu Tetrakis(hydrotrifluoroacetate)”: the isolated mass in series [2] (scale 130 mg resin) is on record as 60.3 mg. In addition, in series [1] (setting [5]), the “final HPLC purity” value is listed as 97% and the isolated yield is 34%.

Take “PEPTIDE1{[Pent4ynoyl].[dK].P.R.R.P.Y.I.L}$$$$V2.0”: in series [2] (scale 60 mg resin), the isolated mass is listed as 7.1 mg. For the same substance, in series [1] (setting [5]), the “final HPLC purity” value was 99% and the isolated yield was 10%.

Regarding X1-[X2]K(Propionyl)PRRPYIL-OH, in series [1] (setting [3]), the “final HPLC purity” value was greater than 99% and the conjugation yield was found to be 99%. Also, in series [1] (conjugation step, overall from precursor 7, TFA salt (hydrotrifluoroacetate)), the conjugation yield is recorded as 48%. Moreover, the step yield in series [1] (setting [4]) was determined as 49%.

As for “PEPTIDE1{[Pent4ynoyl].K.P.R.R.P.Y.I.L}$$$$V2.0”, in series [2] (scale 60 mg resin), the isolated mass turned out to be 26.1 mg. Moreover, in series [1] (setting [5]), the “final HPLC purity” value was greater than 99% and the isolated yield was found to be 38%.

As to “PEPTIDE1{[GAB].[Pra].[pipGly].P.R.R.P.Y.I.L}$$$$V2.0”, in series [2] (scale 60 mg resin), the isolated mass is on record as 16.1 mg. In addition, in series [1] (setting [5]), the “final HPLC purity” value is reported as 98% and the isolated yield is listed as 20%.

Consider “PEPTIDE1{[TAMRAtrzPrp].[pipGly].P.[Arg(carbPrp)].R.P.Y.I.L}$$$$V2.0”, for which, in series [1] (setting [3]), the “final HPLC purity” value was determined as 99% and the conjugation yield is 77%. In addition, the conjugation yield in series [1] (conjugation step, overall from precursor 6 (propionylation + click), TFA salt (hydrotrifluoroacetate)) is reported as 35%. Moreover, the step yield in series [1] (setting [4]) worked out at 45%.

For the substance “N^α-(3-(1-N-((1-Carboxy-2-(6-(dimethylamino)-3-(dimethyliminio)-3H-xanthen-9-yl)phen-5-yl)1-oxomethyl)aminoprop-3-yl-1H-1,2,3-triazol-4-yl)propanoyl)-2-(piperidin-4-yl)-Gly-Pro-N^ω-[(4-aminobutyl)aminocarbonyl]Arg-Arg-Pro-Tyr-Ile-Leu”, in series [1] (setting [3]), the “final HPLC purity” value is listed as 97% and the conjugation yield was 61%.

With “PEPTIDE1{[Pent4ynoyl].[pipGly].P.[Arg(carb)].R.P.Y.I.L}$$$$V2.0”, in series [2] (scale 60 mg resin), the isolated mass came out at 8.8 mg. Further, in series [1] (setting [5]), the “final HPLC purity” value was greater than 99% and the isolated yield is given as 11%.

In the case of “N^α-(3-(1-N-((1-Carboxylato-2-(6-(dimethylamino)-3-(dimethyliminio)-3H-xanthen-9-yl)phen-5-yl)1-oxomethyl)aminoprop-3-yl-1H-1,2,3-triazol-4-yl)propanoyl)-N^ω-(propanoyl)-D-Lys-Pro-Arg-Arg-Pro-Tyr-Ile-Leu Bis(hydrotrifluoroacetate)”, in series [1] (setting [3]), the “final HPLC purity” value was greater than 99% and the conjugation yield amounted to 61%. The conjugation yield in series [1] (conjugation step, overall from precursor 8, TFA salt (hydrotrifluoroacetate)) is listed as 43%. Also, in series [1] (setting [4]), the step yield was determined as 71%.

For the substance “PEPTIDE1{[Prp].[GAB].[Pra(trzTAMRA)].[pipGly].P.R.R.P.Y.I.L}$$$$V2.0”, in series [1] (setting [3]), the “final HPLC purity” value is on record as greater than 99% and the conjugation yield is 40%. In addition, in series [1] (conjugation step, overall from precursor 9, TFA salt (hydrotrifluoroacetate)), the conjugation yield stood at 12%. Moreover, in series [1] (setting [4]), the step yield came to 31%.

In the case of “Pent4ynoyl-[Gly(piperidin-4-yl)]P[X4]RP[dTyr(β,β-Me2)]IL-OH”, in series [2] (scale 130 mg resin), the isolated mass is 37.2 mg. Besides, in series [1] (setting [5]), the “final HPLC purity” value is reported as 98% and the isolated yield worked out at 21%.

Turning to “N^α-(3-(N-(1-(8-Sulfonato-5,5,27,27-tetramethyl-16-oxa-20-aza-12-azoniaheptacyclo[15.11.0.03,15.04,12.06,11.020,28.021,26]octacosa-1(28),2,4(12),6(11),7,9,21(26),22,24-nonaen-24-yl)-5-oxopentyn-5-yl)-1-aminoprop-3-yl-1H-1,2,3-triazol-4-yl)propanoyl)-2-(piperidin-4-yl)-Gly-Pro-N^ω-[(4-aminobutyl)aminocarbonyl]Arg-Arg-Pro-β,β-dimethyl-L-Tyr-Ile-Leu-OH Tetrakis(hydrotrifluoroacetate)”, in series [1] (setting [3]), the “final HPLC purity” value turned out to be 99% and the conjugation yield is 34%.
